Laboratory results reported in paper PMC2634843.
No constants are given. Whether binding was seen depends on the method and setting. Binding seen in cells or lysates may run through a third protein. Some results given as binding are weak or reduced against the parent protein; the word gives no strength.

Chains of the proteins cited; added tags and fusions are not shown. Lines headed by an entry give the natural chain unless they say otherwise; changes in a name come on top.
UniProt P78527: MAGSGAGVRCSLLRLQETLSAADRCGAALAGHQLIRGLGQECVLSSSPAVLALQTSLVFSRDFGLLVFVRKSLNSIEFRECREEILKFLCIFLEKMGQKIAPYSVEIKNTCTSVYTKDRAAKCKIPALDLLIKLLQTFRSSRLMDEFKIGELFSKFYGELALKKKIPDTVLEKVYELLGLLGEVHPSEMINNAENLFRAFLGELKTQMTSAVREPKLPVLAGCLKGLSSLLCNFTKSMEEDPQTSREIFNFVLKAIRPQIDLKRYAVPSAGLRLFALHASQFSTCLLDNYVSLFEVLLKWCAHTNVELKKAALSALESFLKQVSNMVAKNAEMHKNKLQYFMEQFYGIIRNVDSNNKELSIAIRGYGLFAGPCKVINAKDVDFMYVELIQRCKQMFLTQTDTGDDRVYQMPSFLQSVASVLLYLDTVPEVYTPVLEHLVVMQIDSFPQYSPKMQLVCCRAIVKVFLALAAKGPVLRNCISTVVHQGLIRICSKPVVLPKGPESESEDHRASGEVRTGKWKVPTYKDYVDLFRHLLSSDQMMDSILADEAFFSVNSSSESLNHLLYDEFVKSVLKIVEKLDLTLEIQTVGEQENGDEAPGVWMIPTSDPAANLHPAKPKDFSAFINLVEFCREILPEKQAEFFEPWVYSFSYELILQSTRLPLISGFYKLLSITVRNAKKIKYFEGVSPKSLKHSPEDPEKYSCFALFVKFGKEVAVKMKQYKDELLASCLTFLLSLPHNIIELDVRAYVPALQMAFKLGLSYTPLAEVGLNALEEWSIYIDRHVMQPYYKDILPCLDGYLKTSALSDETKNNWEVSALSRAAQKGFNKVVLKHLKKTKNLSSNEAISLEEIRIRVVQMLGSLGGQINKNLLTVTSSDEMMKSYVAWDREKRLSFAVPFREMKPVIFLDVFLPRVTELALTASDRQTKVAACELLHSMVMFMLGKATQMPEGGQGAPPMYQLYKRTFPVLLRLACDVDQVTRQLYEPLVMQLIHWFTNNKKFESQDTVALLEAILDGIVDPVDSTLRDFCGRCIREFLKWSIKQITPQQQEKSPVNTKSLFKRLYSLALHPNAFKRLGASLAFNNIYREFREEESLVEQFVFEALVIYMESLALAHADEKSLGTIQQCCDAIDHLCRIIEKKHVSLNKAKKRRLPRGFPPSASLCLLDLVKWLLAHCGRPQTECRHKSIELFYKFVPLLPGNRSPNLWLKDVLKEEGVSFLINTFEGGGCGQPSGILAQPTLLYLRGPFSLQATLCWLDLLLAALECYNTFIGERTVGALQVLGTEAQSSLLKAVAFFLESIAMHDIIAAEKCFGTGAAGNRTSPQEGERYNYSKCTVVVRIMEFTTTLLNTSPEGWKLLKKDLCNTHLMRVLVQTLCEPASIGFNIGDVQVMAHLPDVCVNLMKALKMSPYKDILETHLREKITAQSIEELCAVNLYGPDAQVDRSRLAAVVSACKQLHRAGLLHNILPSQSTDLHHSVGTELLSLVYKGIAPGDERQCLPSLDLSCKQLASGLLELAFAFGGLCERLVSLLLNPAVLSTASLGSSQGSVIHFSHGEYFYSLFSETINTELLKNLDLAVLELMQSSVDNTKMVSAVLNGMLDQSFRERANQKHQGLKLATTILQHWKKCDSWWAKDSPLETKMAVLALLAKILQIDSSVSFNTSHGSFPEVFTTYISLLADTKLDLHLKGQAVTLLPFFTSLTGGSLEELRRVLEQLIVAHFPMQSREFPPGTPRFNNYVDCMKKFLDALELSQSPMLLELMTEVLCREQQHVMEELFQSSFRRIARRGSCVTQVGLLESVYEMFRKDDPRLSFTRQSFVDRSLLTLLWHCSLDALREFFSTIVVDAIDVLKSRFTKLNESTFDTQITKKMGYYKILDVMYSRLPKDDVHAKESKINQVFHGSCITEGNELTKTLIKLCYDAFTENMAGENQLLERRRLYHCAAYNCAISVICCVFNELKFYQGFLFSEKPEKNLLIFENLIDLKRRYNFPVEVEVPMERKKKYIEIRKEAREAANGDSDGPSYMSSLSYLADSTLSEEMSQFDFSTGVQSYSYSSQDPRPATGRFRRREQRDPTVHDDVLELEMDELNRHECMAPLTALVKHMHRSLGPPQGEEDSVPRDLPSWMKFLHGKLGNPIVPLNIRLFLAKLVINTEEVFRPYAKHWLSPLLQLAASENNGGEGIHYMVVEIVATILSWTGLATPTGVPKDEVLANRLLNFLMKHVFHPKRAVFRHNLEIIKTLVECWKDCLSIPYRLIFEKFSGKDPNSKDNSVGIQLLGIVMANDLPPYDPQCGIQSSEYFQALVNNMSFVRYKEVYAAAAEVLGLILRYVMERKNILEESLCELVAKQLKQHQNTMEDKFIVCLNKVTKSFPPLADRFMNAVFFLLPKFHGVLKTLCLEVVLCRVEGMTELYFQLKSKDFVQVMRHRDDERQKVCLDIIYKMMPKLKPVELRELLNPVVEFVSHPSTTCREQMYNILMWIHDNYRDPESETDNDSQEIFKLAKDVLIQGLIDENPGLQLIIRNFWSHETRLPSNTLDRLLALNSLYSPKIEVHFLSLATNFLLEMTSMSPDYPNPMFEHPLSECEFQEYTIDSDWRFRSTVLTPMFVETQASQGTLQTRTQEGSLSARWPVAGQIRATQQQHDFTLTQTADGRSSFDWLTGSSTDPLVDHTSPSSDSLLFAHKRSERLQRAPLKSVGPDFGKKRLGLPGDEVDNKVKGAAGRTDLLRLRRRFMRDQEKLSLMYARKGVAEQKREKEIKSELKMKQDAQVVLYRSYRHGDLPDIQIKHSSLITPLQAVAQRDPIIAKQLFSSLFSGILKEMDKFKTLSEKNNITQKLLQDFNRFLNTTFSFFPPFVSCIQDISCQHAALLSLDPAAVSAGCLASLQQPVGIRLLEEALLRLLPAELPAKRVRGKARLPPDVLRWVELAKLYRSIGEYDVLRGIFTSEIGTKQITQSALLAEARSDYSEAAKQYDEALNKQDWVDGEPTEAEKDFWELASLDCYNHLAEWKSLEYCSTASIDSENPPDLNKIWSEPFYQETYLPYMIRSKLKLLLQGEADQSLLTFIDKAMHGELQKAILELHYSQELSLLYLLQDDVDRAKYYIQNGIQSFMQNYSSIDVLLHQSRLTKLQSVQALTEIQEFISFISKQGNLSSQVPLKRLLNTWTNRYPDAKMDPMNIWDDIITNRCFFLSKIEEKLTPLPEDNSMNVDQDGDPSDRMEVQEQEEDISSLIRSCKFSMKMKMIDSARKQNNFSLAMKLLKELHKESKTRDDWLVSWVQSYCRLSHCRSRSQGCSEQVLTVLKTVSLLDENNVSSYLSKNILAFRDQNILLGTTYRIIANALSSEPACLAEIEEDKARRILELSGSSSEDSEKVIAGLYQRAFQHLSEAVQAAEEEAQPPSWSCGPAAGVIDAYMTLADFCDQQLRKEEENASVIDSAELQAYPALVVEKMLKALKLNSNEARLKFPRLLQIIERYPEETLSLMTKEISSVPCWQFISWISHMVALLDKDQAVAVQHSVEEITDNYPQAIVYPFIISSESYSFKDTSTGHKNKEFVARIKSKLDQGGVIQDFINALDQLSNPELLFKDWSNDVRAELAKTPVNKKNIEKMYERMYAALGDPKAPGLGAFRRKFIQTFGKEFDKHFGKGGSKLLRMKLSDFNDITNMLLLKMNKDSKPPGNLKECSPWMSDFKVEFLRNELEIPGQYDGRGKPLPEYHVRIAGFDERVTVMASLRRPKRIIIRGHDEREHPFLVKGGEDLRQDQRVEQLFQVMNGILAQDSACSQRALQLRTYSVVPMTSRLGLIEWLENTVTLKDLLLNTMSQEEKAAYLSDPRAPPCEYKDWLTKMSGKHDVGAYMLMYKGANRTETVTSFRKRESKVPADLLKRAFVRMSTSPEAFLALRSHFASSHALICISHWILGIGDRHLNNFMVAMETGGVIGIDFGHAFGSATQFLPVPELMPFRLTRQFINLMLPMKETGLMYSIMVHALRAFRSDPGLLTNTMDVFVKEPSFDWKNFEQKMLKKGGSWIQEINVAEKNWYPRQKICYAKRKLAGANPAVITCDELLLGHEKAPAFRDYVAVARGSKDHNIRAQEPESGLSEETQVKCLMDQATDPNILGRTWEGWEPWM

Key:
[1] = biological target: endogenous DNA-PKcs (DNA-PK catalytic subunit) (human (endogenous in M059K)) (UniProt P78527); experiment: co-IP; nuclear extracts of M059K cells one hour after 0, 5 or 10 Gy; immunoprecipitation of endogenous DNA-PKcs; immunoblots quantified by densitometry
[2] = biological target: endogenous DNA-PKcs (DNA-PK catalytic subunit) (human (endogenous in M059K)) (UniProt P78527); experiment: co-IP; extracts of irradiated (10 Gy) M059K cells, lysis buffer with 0.5% NP-40; 1 mg total protein with 4 ug monoclonal anti-DNA-PKcs antibody at 4°C overnight, protein-A agarose; immunoblot for PP6R1 and PP6c

binding [1]	binding [2]	Binder
binds	binds	endogenous PP6c (enzyme, UniProt O00743 1-305) MAPLDLDKYVEIARLCKYLPENDLKRLCDYVCDLLLEESNVQPVSTPVTVCGDIHGQFYDLCELFRTGGQVPDTNYIFMGDFVDRGYYSLETFTYLLALKAKWPDRITLLRGNHESRQITQVYGFYDECQTKYGNANAWRYCTKVFDMLTVAALIDEQILCVHGGLSPDIKTLDQIRTIERNQEIPHKGAFCDLVWSDPEDVDTWAISPRGAGWLFGAKVTNEFVHINNLKLICRAHQLVHEGYKFMFDEKLVTVWSAPNYCYRCGNIASIMVFKDVNTREPKLFRAVPDSERVIPPRTTTPYFL
binds	binds	endogenous PP6R1 (protein, UniProt Q9UPN7 1-881) MFWKFDLHTSSHLDTLLEREDLSLPELLDEEDVLQECKVVNRKLLDFLLQPPHLQAMVAWVTQEPPDSGEERLRYKYPSVACEILTSDVPQINDALGADESLLNRLYGFLQSTGSLNPLLASFFSKVMGILINRKTDQLVSFLRKKDDFVDLLLQHIGTSAIMDLLLRLLTCVERPQLRQDVVNWLNEEKIVQRLIEQIHPSKDENQHSNASQSLCDIIRLSREQMIQVQDSPEPDQLLATLEKQETIEQLLSNMFEGEQSQSVIVSGIQVLLTLLEPRRPRSESVTVNSFFSSVDGQLELLAQGALESTVSSVGALHALRPRLSCFHQLLLEPPKLEPLQMTWGMLAPPLGNTRLHVVKLLASALSANDAALTHELLALDVPNTMLDLFFHYVFNNFLHAQVEGCVSTMLSLGPPPDSSPETPIQNPVVKHLLQQCRLVERILTSWEENDRVQCAGGPRKGYMGHLTRVAGALVQNTEKGPNAEQLRQLLKELPSEQQEQWEAFVSGPLAETNKKNMVDLVNTHHLHSSSDDEDDRLKEFNFPEEAVLQQAFMDFQMQRMTSAFIDHFGFNDEEFGEQEESVNAPFDKTANITFSLNADDENPNANLLEICYKDRIQQFDDDEEEEDEEEAQGSGESDGEDGAWQGSQLARGARLGQPPGVRSGGSTDSEDEEEEDEEEEEDEEGIGCAARGGATPLSYPSPGPQPPGPSWTATFDPVPTDAPTSPRVSGEEELHTGPPAPQGPLSVPQGLPTQSLASPPARDALQLRSQDPTPPSAPQEATEGSKVTEPSAPCQALVSIGDLQATFHGIRSAPSSSDSATRDPSTSVPASGAHQPPQTTEGEKSPEPLGLPQSQSAQALTPPPIPNGSAPEGPASPGSQ
